Some peptides are written in HELM: one residue between dots, names in brackets for other building blocks, links after the first $.
Assay: general procedure: Boc solid-phase peptide synthesis; 4-methyl benzhydrylamine resin
Conditions: whole synthesis, scale 0.5 mmol

In the case of “PEPTIDE1{D.Y.L.N.K.V.L.P.Y.Y.S.S.Y.Y.V.[am]}$$$$V2.0”, the crude mass is reported as 1.044 g and the isolated mass is reported as 238 mg.

— US5916876A (Centocor, Inc., priority 1994, dated 1999)
